# Source: US4235916A, “2-Methylthio-6-fluoro-9-(1-methyl-4-piperidylidene)-thioxanthene and salts thereof, neuroleptic compositions and method of use” (Kefalas A/S, priority 1977, dated 1980)
# Tests used:
# Muscarinic = Muscarinic affinity binding (3H-PrBCM, whole brain P2 fraction); set-up: species or system Rats; settings: displacement of specific 3H-PrBCM binding by 50%; rat brain, pH 7.4, 30° C.; read-out: Muscarine affinity (IC50)
# Experimental: Muscarinic affinity binding
# Sodium thiosulphate 10 mM (2.48 g/1000 ml) ^3 H-PrBCM (N-2'-chloroethyl-N-[2", 3"-^3 H2 ] propyl-2-aminoethylbenzilate,spec. act. ~28 Ci/mM).
# A rat is killed by a blow on the head and exsanguinated. The whole brain is removed and homogenized in 10 volumes of ice cold 0.32 M sucrose with a hand homogenizer. The homogenate is centrifuged at 600 g for 10 minutes (4° C.) and the pellet discarded. The supernatant is then centrifuged at 25000 g for 55 minutes (4° C.). The pellet fraction (P2) is resuspended in the same volume of 0.32 M sucrose as previously used and stored on ice.
# The aziridinium ion of ^3 H-propylbenzilyllcholine mustard (^3 H-PrBCM) is prepared by cyclization at a concentration of 130 nM in 15 mM Na-phosphate buffer (pH 7.4) for 50 minutes at 20° C. The reaction is terminated by addition of 100 volumes of ice cold buffer.
# The incubation is continued for 15 minutes and stopped by addition of 20 ml 100 mM phosphate buffer containing 10 mM sodium thiosulphate. The samples are filtered through Whatman GF/C glass fiber filters and washed with 30 ml ice cold 100 mM phosphate buffer. The filters with synaptosomes are transferred to scintillation vials and the radio-activity measured by liquid scintillation counting after addition of 10 ml Instal-Gel (Packard Inst.). All experiments are performed in triplicate. […]
# [1] = Catalepsy wire mesh, rat, max.; type: in vivo, male; settings: catalepsy ED50 (s.c.) / amphetamine antagonism ED50 (i.p.), rats
# Experimental: Catalepsy wire mesh, rat, max. (ED50 mg/kg s.c.)
# A vertical wire netting (50 cm×49 cm). The meshes (openings) of the netting are square (1 cm×1 cm). The wire diameter is 2 mm.
# The animals are labeled and used in groups of five. The test substance is injected subcutaneously (s.c.) (5 ml/kg) at 4 dose levels selected from the fixed dose scale.
# The animals are placed in the middle of the vertical wire netting 60, 120, 180, 240, 300 and 360 minutes after injection of the test compound. The animals are considered cetaleptic when they remain immobile during a period of 15 seconds. This cataleptic reaction is designated +. If the rats are "atonic" and passively slides down the wire mesh they are considered not cataleptic. If the animals climb up and down the wire mesh they are nor cataleptic. In both situations the designation - is used.
smiles,measurement,setting,value
OCCN1CCN(CCCN2c3ccccc3Sc3ccc(C(F)(F)F)cc32)CC1 [fluphenazine],IC50,Muscarinic,8 µM
same,Ratio Catalep./Amphetam. antag.,[1],1.2
